Structures can show the parent of a compound that is named as a salt. Some of the results follow. This data set is noisy: repeats of one test often differ as much as different tests do.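 Human kidney-derived cells stably carry a construct in which eight TEAD-binding elements drive luciferase, measured by luminescence in a drug-repurposing library screen. A hit is any compound whose signal exceeds the plate mean by more than five robust Z scores.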
Tested on: HEK293A TEAD-LUC reporter
Experiment: TEAD-luciferase reporter activity (YAP activation), robust Z score vs plate; higher = stronger YAP/TEAD activation
Conditions: 24 h

Compound | TEAD-luciferase reporter activity (compound concentration: 200 nM) | TEAD-luciferase reporter activity (compound concentration: 2 uM) | TEAD-luciferase reporter activity (compound concentration: 10 uM)
COc1ccc(C[C@H]2c3cc(OC)c(OC)cc3CC[N@+]2(C)CCCOC(=O)/C=C\C(=O)OCCC[N@@+]2(C)CCc3cc(OC)c(OC)cc3[C@@H]2Cc2ccc(OC)c(OC)c2)cc1OC | inactive: 0.846 | inactive: 0.241 | inactive: 1.4
COc1cccc(C2(O)CCCC[C@@H]2C[N+](C)(C)[O-])c1 (some centres undefined) [Tramadol N-oxide] | inactive: -0.939 | inactive: 0.637 | inactive: -0.648
CC1(C)S[C@@H]2[C@H](NC(=O)CCC[C@@H](N)C(=O)O)C(=O)N2[C@H]1C(=O)O | inactive: -2.08 | inactive: -0.762 | inactive: 0.604
CN(C)S(=O)(=O)c1ccc2c(c1)N(C1CN3CCC1CC3)c1ccccc1S2 (centres undefined) [quisultazine] | inactive: 2.89 | inactive: -0.84 | inactive: -0.92
O=C(C[N+]12CCC(CC1)C(OC(=O)C1(c3ccccc3)CCCCCC1)C2)Nc1ccccn1 (centres undefined) | inactive: 2.96 | inactive: -0.302 | inactive: -0.862
C1CCc2nnnn2CC1 [pentylenetetrazole] | – | inactive: 0.776 | –
C1CCc2nnnn2CC1 | inactive: -0.857 | – | inactive: 4.14
NCCc1cn(S(=O)(=O)c2c(Cl)nc3sccn23)c2ccccc12 | inactive: -1.19 | inactive: -0.224 | inactive: -0.336
C[C@]12CCC(NOCCN)=C[C@@H]1C(=O)C[C@@H]1[C@@H]2CC[C@]2(C)C(=O)CC[C@@H]12 [istaroxime] | inactive: -1.41 | inactive: 2.5 | –
C[C@H](N)[C@@H](O)c1ccccc1 [Cathine hydrochloride] | inactive: 1.28 | – | inactive: -0.708
COc1cc(N(C)C(=O)C(=O)c2c(C)n(Cc3ccc(Cl)cc3)c3ccc(Cl)cc23)ccn1 | inactive: -2.61 | inactive: -0.915 | inactive: 0.252
CC(C)N[C@H]1CCn2c(O)nc3cccc(c32)[C@@H]1O | inactive: 0.352 | inactive: 0.778 | inactive: 0.777
CCCCC/C=C\C/C=C\C/C=C\C/C=C\CCCC(=O)NCCCC(=O)O | – | inactive: -1.16 | inactive: -1.87
COCC1CN=C(c2ccccc2Cl)c2cc(Br)ccc2N1C (centres undefined) | inactive: 0.264 | inactive: 0.186 | inactive: 0.616
Cc1cn([C@H]2C[C@H](N=[N+]=[N-])[C@@H](COP(=O)([O-])O)O2)c(=O)[nH]c1=O [Phosphonovir] | inactive: 0.501 | inactive: 0.815 | inactive: 4.71

Full records, quoted from the list. Values in the order: TEAD-luciferase reporter activity (compound concentration: 200 nM)	TEAD-luciferase reporter activity (compound concentration: 2 uM)	TEAD-luciferase reporter activity (compound concentration: 10 uM)
Cc1cn([C@H]2C[C@H](N=[N+]=[N-])[C@@H](COP(=O)([O-])O)O2)c(=O)[nH]c1=O [Phosphonovir] is entered as inactive: 0.501	inactive: 0.815	inactive: 4.71
C1CCc2nnnn2CC1 is entered as inactive: -0.857	–	inactive: 4.14
